Test results published in PubChem BioAssay AID624404 (Broad Institute, 2012).
About 710 (39%) of roughly 1,800 compounds were called active. This list was built around the results that the source calls inconclusive (neither active nor inactive); the mix of calls is not that of the screen.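 The calls were made as follows: active = luciferase signal rise whose fitted curve crosses a set activity limit at or below the top valid tested dose; inconclusive = flat fit with 30 to 70% rise, or poor fit; inactive = signal falling, flat within 30%, or crossing above top dose.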

Test: luciferase activators in glycosylation-insensitive reporter cells, dose response, counter-screen for N-linked glycosylation inhibitor project, D54 LucT cells, luminescence, cherry pick (AID 624404);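 also: 0% = median neutral control signal and 100% = twice that signal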
Details: D54 LucT luciferase reporter counterscreen, 24 h; at 19.5 µM (top of the series) unless noted
In the case of `Cc1c(O)cc2c(c1O)C(=O)CC(c1ccccc1)O2` (configuration not stated), the activity increase (luciferase signal) is reported as inconclusive: 75.4% [at 5 µM].
In the case of `CCOc1ccc(S(=O)(=O)NCc2cccnc2)cc1NC(=O)c1ccccc1F`, the activity increase (luciferase signal) is reported as inconclusive: 58.3%.
In the case of `COc1cc(/C=N/NC(=O)c2cc(-c3c(C)nn(-c4ccccc4)c3C)n[nH]2)ccc1O`, the activity increase (luciferase signal) is reported as inconclusive: 70.3%.
With `Cc1cc(O)c(NC(=O)c2cc([N+](=O)[O-])ccc2Cl)cc1C` the activity increase (luciferase signal) was inactive: 5.97%.
With `CCOc1ccc(NC(=S)NC(=O)/C=C/c2ccc(C)cc2)c([N+](=O)[O-])c1` the activity increase (luciferase signal) was inconclusive: 33.8%.
For `Cc1cc(C)c2nc3nc(C)cc(C)c3c(N)c2c1`, the activity increase (luciferase signal) was inconclusive: 47.1% [at 5 µM].
For `O=S1(=O)C=CC(Nc2cccc(Cl)c2)C1` (configuration not stated), the activity increase (luciferase signal) was inconclusive: 64.5%.
With `CSC1=NC(C(Cl)(Cl)Cl)N=C(c2ccccc2)N1` (configuration not stated) the activity increase (luciferase signal) was inconclusive: 61.7%.
In the case of `Cc1cc(Cl)ccc1OCCCC(=O)NO`, the activity increase (luciferase signal) is reported as inconclusive: 49.7%.
In the case of `O=C(Cc1cccs1)NCCS(=O)(=O)N1CCN(c2ccccc2F)CC1`, the activity increase (luciferase signal) is reported as inconclusive: 36.2%.
For `COc1cc(/C=C2/C(=O)N(C)C(=S)N2C)ccc1OCc1cccc(F)c1`, the activity increase (luciferase signal) was inactive: -47.8%.
In the case of `Cc1c(C(=O)C(=O)N2c3ccc(F)cc3CCC2C)c2ccccc2n1C` (configuration not stated), the activity increase (luciferase signal) is reported as inconclusive: 23.3%.
For `COc1ccccc1-c1cc(C(=O)Nc2cc(C)nn2-c2ccccc2)no1`, the activity increase (luciferase signal) was inconclusive: 46.3%.
In the case of `O=C(CN1C(=O)/C(=C\c2ccc(F)cc2)Oc2ccccc21)N1CCN(c2ccccn2)CC1`, the activity increase (luciferase signal) is reported as inactive: 14.4%.
For `Cn1cnc(Sc2ncnc3nc[nH]c23)c1[N+](=O)[O-]`, the activity increase (luciferase signal) was inactive: -7.2% [at 5 µM].
In the case of `NC(=O)CC(NC(=O)Cc1ccc(Br)cc1)c1ccc(NCC2CC2)c([N+](=O)[O-])c1` (configuration not stated), the activity increase (luciferase signal) is reported as inconclusive: 42.6%.
With `CN(C)/N=C/c1ccc(Sc2ccc([N+](=O)[O-])cc2[N+](=O)[O-])o1` the activity increase (luciferase signal) was inactive: 4.59%.
With `COc1cccc(-c2nn(-c3ccccc3)cc2/C=C\C(=O)c2cccs2)c1` the activity increase (luciferase signal) was inconclusive: 45.2%.
For `CCc1ccc2[nH]c3nc(SCC(=O)NNC(=O)c4ccc(C(C)(C)C)cc4)nnc3c2c1`, the activity increase (luciferase signal) was inconclusive: 42%.
In the case of `Cc1cc(NCCCN(C)C)n2c(nc3ccccc32)c1C#N`, the activity increase (luciferase signal) is reported as inactive: -10.7%.
For `Cc1ccc(N2C(=O)c3cccc4c([N+](=O)[O-])ccc(c34)C2=O)c2cccnc12`, the activity increase (luciferase signal) was inconclusive: 15.4%.
With `CC1CCCCN1C(=O)NC12CC3CC(CC(C3)C1)C2` (configuration not stated) the activity increase (luciferase signal) was inconclusive: 57.5%.
With `COc1cc(NC(=O)c2noc(C)c2[N+](=O)[O-])c(OC)cc1Cl` the activity increase (luciferase signal) was inconclusive: 54.4%.
With `COc1ccc(/C=C2\CN(Cc3ccccc3)C/C(=C\c3ccc(OC)cc3)C2=O)cc1` the activity increase (luciferase signal) was inconclusive: -15.5%.
With `CC1Nc2ncnc(N3CCc4ccccc4C3)c2N(Cc2ccc(Br)cc2)C1=O` (configuration not stated) the activity increase (luciferase signal) was inconclusive: 27.5%.
With `O=C(CC(O)c1ccncc1)c1ccccc1O` (configuration not stated) the activity increase (luciferase signal) was inconclusive: 29.5%.
For `CCOC(=O)c1[nH]c(C)c(C(=O)Nc2ccc(C)cc2C)c1C`, the activity increase (luciferase signal) was inconclusive: 65.1%.
With `CC(=O)Nc1cccc(-c2ccnc3c2CC(C)(C(=O)NCCC(F)(F)F)O3)c1` (configuration not stated) the activity increase (luciferase signal) was inconclusive: 48.8%.
For `O=C(c1cccc([N+](=O)[O-])c1)N1CCN(c2cccc(Cl)c2)CC1`, the activity increase (luciferase signal) was inactive: 1.66%.
For `O=C1c2ccccc2C(=O)C12OC2c1ccc(Cl)cc1Cl` (configuration not stated), the activity increase (luciferase signal) was inconclusive: 50.5%.
In the case of `Cc1ccc(-c2nc(C(=O)NCCCN(C)C)cc3c2[nH]c2ccccc23)cc1`, the activity increase (luciferase signal) is reported as inconclusive: 37.2%.
With `Cc1ccc(C)c(N2CCN(c3cnn(-c4nc5ccccc5s4)c(=O)c3Cl)CC2)c1` the activity increase (luciferase signal) was inactive: 36.1%.
In the case of `COc1ccc(-n2c(C)cc(C(=O)CCl)c2C)cc1`, the activity increase (luciferase signal) is reported as inactive: -1.73%.
With `COc1ccc(C(=O)NCC(c2ccco2)N2CCc3ccccc32)cc1` (configuration not stated) the activity increase (luciferase signal) was inconclusive: 50.2%.
In the case of `CCOC(=O)c1ccccc1Nc1cn(C(C)=O)c2ccccc12`, the activity increase (luciferase signal) is reported as inconclusive: 53.3%.
With `COc1cc2c(cc1OC)C(c1ccccc1)N(C(=O)CCl)CC2` (configuration not stated) the activity increase (luciferase signal) was inactive: -85.1%.
In the case of `CCOc1ccc(-n2c(C)cc(C(=O)CCl)c2C)cc1`, the activity increase (luciferase signal) is reported as inactive: -6.33%.
In the case of `COC(=O)c1sc(N)c(C(=O)OC)c1COC(=O)c1c(C)noc1C`, the activity increase (luciferase signal) is reported as inactive: 41.7%.
For `COc1ccccc1-n1cnc2cc(NCc3ccco3)ccc21`, the activity increase (luciferase signal) was inconclusive: 113%.
With `Cc1cc(C)cc(C(=O)N2CC(=O)Nc3ccccc32)c1` the activity increase (luciferase signal) was inconclusive: 8.4%.
In the case of `CC(C)N(CC(=O)Nc1ccc(Cl)cc1C(F)(F)F)C(=O)CCl`, the activity increase (luciferase signal) is reported as inconclusive: 37.1%.
In the case of `Nc1nc(-c2ccccc2)cc(N2CCCCC2)n1`, the activity increase (luciferase signal) is reported as inconclusive: 42.1%.
With `Cc1ccc(CSc2ccc3nnc(-c4cccnc4)n3n2)cc1` the activity increase (luciferase signal) was inconclusive: 55.4%.
In the case of `COc1ccc(NC(=O)c2cnc(SC)nc2)cc1`, the activity increase (luciferase signal) is reported as inconclusive: 81.1%.
With `CC(=O)c1cccc(-c2ccnc3c2CC(C(=O)NCc2ccccc2)O3)c1` (configuration not stated) the activity increase (luciferase signal) was inconclusive: 92.6%.
In the case of `COc1ccccc1-c1nnc2sc(-c3cc4ccccc4o3)nn12`, the activity increase (luciferase signal) is reported as inconclusive: 40.2%.
For `O=C(C=Cc1ccccn1)c1ccccc1O`, the activity increase (luciferase signal) was inconclusive: 5.88%.
In the case of `CC1=C[C@@H](C)[C@@H](c2ccc(C(F)(F)F)cc2)OC1=O`, the activity increase (luciferase signal) is reported as inconclusive: 51.9%.
In the case of `COc1ccc(CCn2c(Br)nc3c2c(=O)[nH]c(=O)n3C)cc1`, the activity increase (luciferase signal) is reported as inactive: 57.4%.
For `O=C(Oc1ccccc1C(=O)Nc1ccccc1)c1ccccc1Br`, the activity increase (luciferase signal) was inconclusive: 56.8%.
For `Cn1cnc([N+](=O)[O-])c1Oc1ccc2ccccc2c1`, the activity increase (luciferase signal) was inactive: 0%.
With `O=C(NCc1cccs1)C1CCN(c2ccc(S(=O)(=O)N3CCOCC3)cc2Cl)CC1` the activity increase (luciferase signal) was inconclusive: 46.4%.
With `CCCCCCC(=O)N(O)C1CC(=O)N(c2ccc(F)cc2)C1=O` (configuration not stated) the activity increase (luciferase signal) was inconclusive: 43.7%.
For `Cc1cc(NC(=O)/C=C/C(=O)N(CC(=O)NC2CCCC2)c2ccc(F)cc2)no1`, the activity increase (luciferase signal) was inactive: -17.1%.
For `CCN(CC)CCNc1cccc2sc3ccccc3c(=O)c12`, the activity increase (luciferase signal) was inconclusive: 12.6%.
In the case of `COc1ccc(-c2nn(C)c(=O)c3ccccc23)cc1NS(C)(=O)=O`, the activity increase (luciferase signal) is reported as inactive: 57.1%.
In the case of `COc1cc(OC)cc(C(=O)NNC(=O)c2ccc3ccccc3n2)c1`, the activity increase (luciferase signal) is reported as inconclusive: 7.76%.
